According to patent US12607637B2, “Super-resolution morphology-correlated detection of labile zinc” (University of Cincinnati, priority 2020, dated 2026):
Entries after “also recorded” stand apart in the source; their conditions may differ.

Key:
[1] = Spectroscopic study: fluorescence quantum yield and pH stability in DMSO/HEPES; type: physicochemical
Experimental: The stock solution of NapBu-BPEA was prepared with DMSO of HPLC pure grade to make the concentration as 10 mM, and frozen after packing at −20° C. The sample solutions were diluted to the final concentration as 10 μM with 3 mL HEPES buffer (50 mM, 100 mM KNO3, 10% DMSO, pH 7.2) in quartz cuvettes with 1 cm path lengths. The fluorescent spectra were recorded upon the excitation of 450 nm.
The Zn^2+ titration spectra were recorded by adding in aliquots Zn^2+ solution from 0 to 15 μM into the NapBu-BPEA solution (10 μM). The detection limit of NapBu-BPEA was determined by collecting the fluorescence spectra of NapBu-BPEA for 6 times to obtain the background noise (a). The probe's fluorescent sensing selectivity of NapBu-BPEA was recorded after adding metal cation (1000 eq K^+, Na^+, Ca^2+, Mg^2+; 1 eq Cd^2+, Ni^2+, Cr^3+, Pb^2+, Al^3+, Co^2+, Fe^2+, Fe^3+, Ba^2+, Mn^2+) to the NapBu-BPEA solution. The fluorescence quantum yields were determined by using Ru(bpy)3^2+ (Φ=0.04) in DMSO/HEPES (v:v, 1:9)(λex=450 nm) as the reference. To determine binding constant, various amounts of Zn(NO3)2 (0˜9 mM) were added to NapBu-BPEA solution buffered with DMSO/HEPES (50 mM, pH 7.21, 100 mM KNO3) containing 10 mM EGTA. The pH stability was measured by recording the fluorescence spectra of NapBu-BPEA solution in the presence of Zn^2+ at different pH adjusted with KOH and HCl.

HeLa cells = assay: SIM imaging of intracellular labile Zn^2+ on ZnPT loading and TPEN scavenging; type: cell-based; details: ZnPT incubation
Experimental: In view of these promising results, a 1:2 mixture of ZnCl2 and pyrithione sodium salt, a cell-permeable Zn^2+ carrier (ZnPT) to transport exogenous Zn^2+ to cells, and a cell-permeable Zn^2+-chelating agent, TPEN, were used to evaluate the reversibility of fluorescence response to Zn^2+ in living cells according to methods described elsewhere. To determine the entry time of exogenous Zn^2+ into cells, NapBu-BPEA was incubated and an initial image was captured, after which 50 μM ZnPT (50 μM ZnCl2/100 μM pyrithione sodium salt) was used to replace the culture medium in dye-free and serum-free DMEM. […] The variance may be attributed to the difference in lipophilicity.
Next, NapBu-BPEA was investigated for its intracellular labile Zn^2+ imaging ability. Imaging experiments were performed in HeLa cells upon exogenous Zn^2+ loading via incubation with zinc pyrithione cmplex (ZnPT), a cell-permeable Zn^2+ carrier.
Intracellular labile Zn^2+ enhancement processes were tracked by recording SIM images every 2 min. […] While not desiring to be bound by theory, it is proposed that the butyl tail of NapBu-BPEA is responsible for the retained multiple organelle accumulation behavior of NapBu-BPEA upon Zn^2+ binding.

CCCCN1C(=O)c2cccc3c(NCCN(Cc4ccccn4)Cc4ccccn4)ccc(c23)C1=O [NapBu-BPEA, 2,4-(bis(pyridin-2-ylmethyl)aminoethyl)amino-N-n-butyl-1,8-naphthalimide]
fluorescence quantum yield ([1]; after 1 eq Zn^2+, DMSO/HEPES 1:9, pH 7.2): 0.797
relative fluorescence quantum yield ([1]; free probe, DMSO/HEPES 1:9, pH 7.2, reference Ru(bpy)3^2+): 0.318
fluorescence localization upon exogenous Zn^2+ loading (HeLa cells): continued to exhibit fluorescence in the cytoplasm; also recorded: no fluorescence appeared in the nucleus
